Test results as given in paper PMC8767726.
No constants are given. Whether binding was seen depends on the method and setting. In cells and extracts the contact can be indirect. Some binding calls cover weakened binding; strength is not graded here.

By UniProt entry, the sequences of proteins in these tests, tags left out.
UniProt Q03135: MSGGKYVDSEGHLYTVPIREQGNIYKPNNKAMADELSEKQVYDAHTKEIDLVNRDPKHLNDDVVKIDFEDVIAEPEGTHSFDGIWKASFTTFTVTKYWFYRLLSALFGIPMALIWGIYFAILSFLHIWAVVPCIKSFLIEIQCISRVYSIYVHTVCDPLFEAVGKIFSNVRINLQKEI

Molecular target: caveolin 1 (CAV1) (human (endogenous in primary CAFs from patients' PDAC tissue)) (UniProt Q03135)
Assay: co-IP; CAF lysates in IP lysis buffer with protease inhibitors; indicated antibody or rabbit IgG control overnight at 4 °C, Dynabeads Protein A/G 3 h at 4 °C, western blot; CAFs with the indicated treatments (change of circFARP1 level)

B1: E3 ubiquitin-protein ligase zinc and ring finger 1 (ZNRF1) (enzyme, UniProt Q8ND25 1-227)
chain: MGGKQSTAARSRGPFPGVSTDDSAVPPPGGAPHFGHYRTGGGAMGLRSRSVSSVAGMGMDPSTAGGVPFGLYTPASRGTGDSERAPGGGGSASDSTYAHGNGYQETGGGHHRDGMLYLGSRASLADALPLHIAPRWFSSHSGFKCPICSKSVASDEMEMHFIMCLSKPRLSYNDDVLTKDAGECVICLEELLQGDTIARLPCLCIYHKSCIDSWFEVNRSCPEHPAD
  binding: binds
